# “And” between values parts separate entries of the source, which are not always exact repeats. Equal entries are not always repeated. At least one peptide structure holds a part that was inferred or is arguable (an end, a ring closure or a residue). Marks after values point to notes of the source that are not given here. Where a SMILES comes first, the peptide text is derived from it. Bridges are numbered along the chain shown (N, C = ends).
# Test system: E. coli AID#172
# Test: Neutropenic thigh infection model, dose-response and estimation of ED50 (Example 4)
# Format: in vivo, Escherichia coli
# Settings: for log10 CFU thigh mean / log10 CFU thigh: T = 5; for log10 CFU thigh mean: group mean without outlier; for log10 CFU thigh: individual mice, ¤ value excluded from mean as outlier
# Experimental: The purpose of this study was to investigate the dose-response relationship following intravenous (i.v.) administration of a single dose of NZ17074 ranging from 0.16-12 mg/kg. The effect was tested against E. coli AID#172 in the neutropenic thigh model. Treatment with 40 mg/kg meropenem was included as a positive control group. The colony counts in thighs were determined at 5 hours after treatment.
# The thigh infection model is a well-recognized model for studies of antimicrobial effect and tissue penetration as described by S. Gudmundsson & H. Erlensdóttir: Handbook of Animal Models of Infection (1999), ed. by O. Zak & M. A. Sande, Academic Press, San Diego, US and in several publications. Reviewed by D. Andes & C. Craig: Animal model pharmacokinetics and pharmacodynamics: a critical review. International Journal of Antimicrobial Agents 19(4): 261-268.
# • 40 outbred, NMRI female mice, 25-30 grams (Harlan Scandinavia) • E. coli AID#172 from Statens Serum Institute, Copenhagen, Denmark: Clinical isolate from a human wound from 2003. Multiresistant (Ampicillin, Ceftazidime, Aztreonam, Gentamicin, Ciprofloxacin) • NZ17074 in Ringer Acetate, pH 6: 1.2 mg/ml, 6.0 ml. The solution was stored at 4° C. until use. Analyses of the dose formulations used were performed after completion of the in-life phase of the study and gave the following results:
# The mice were rendered neutropenic by injecting 0.5 ml cyclophosphamide solution intraperitoneally 4 days (200 mg/kg) and 1 day (100 mg/kg) prior to inoculation.
# Fresh overnight E. coli AID#172 colonies from a 5% Horse Blood Agar plate were suspended and diluted in sterile saline to approximately 2×10^7CFU/ml. One hour before start of treatment (time −1 hour) mice were inoculated intramuscularly with 0.05 ml of the E. coli suspension in the left hind leg. Approximately ½ hour before inoculation mice were treated orally with 45 microliters neurophen (20 mg ibuprofen/ml corresponding to 30 mg/kg) as a pain relief.
# The mice were treated i.v. in the lateral tail vein over approximately 30 seconds with 10 ml/kg with a single dose of NZ17074, meropenem or vehicle at time 0 hour (see Table 1). The dosing was based on a mean weight of 30 g. Mice that weighed 28-32 g received 0.30 ml solution. Mice that weighed 27-28 g received 0.25 ml solution and mice that weighed 32.1-36 g received 0.35 ml solution.
# The mice were observed during the study and scored 0-5 based on their behaviour and clinical signs. • Score 0: Healthy. • Score 1: Minor clinical signs of infection and inflammation e.g. observations of minor signs of distress or changed activity. • Score 2: Clear signs of infection like, social withdrawal, lack of curiosity, changed body position, piloerection, or changes in pattern of movement. • Score 3: Severe signs of infection like stiff movements, lack of curiosity, changed body position, piloerection, pain, or changes in pattern of movement. • Score 4: Severe pain and the mouse was sacrificed immediately to minimize the suffering of the animal. • Score 5: The mouse was dead.
# Colony counts were determined from thighs at 0 and 5 hours. The mice were anaesthetized with CO2+O2 and sacrificed. Immediately after, skin was removed and the left hind leg was collected and frozen at −70° C. After thawing, the thighs were homogenized using a Dispomix® Drive. Each sample was then 10 fold diluted in saline and 20-microliter spots were applied on blue agar plates. All agar plates were incubated 18-22 hours at 35° C. in ambient air.
# The colony counts were performed at the start of treatment and 5 hours after treatment. The CFU numbers are log10 transformed before performing calculations.
smiles,measurement,setting,value
"CC(C)[C@@H]1NC(=O)CNC(=O)[C@H](CC(N)=O)NC(=O)[C@H](CCCNC(=N)N)NC(=O)[C@H](Cc2ccc(O)cc2)NC(=O)[C@H](C(C)C)NC(=O)[C@@H]2CSSC[C@H](NC(=O)[C@H](C(C)C)NC(=O)[C@H](CCCNC(=N)N)NC1=O)C(=O)N[C@@H](Cc1c[nH]cn1)C(=O)N[C@@H](CCCNC(=N)N)C(=O)N[C@@H](CCCNC(=N)N)C(=O)N[C@H](C(=O)N[C@@H](CC(N)=O)C(=O)O)CSSC[C@H](NC(=O)[C@H](Cc1ccccc1)NC(=O)CN)C(=O)N[C@@H](Cc1c[nH]c3ccccc13)C(=O)N[C@@H](CC(N)=O)C(=O)N[C@@H](C(C)C)C(=O)N2 [SEQ ID NO: 70] (H-GFCWNVCVYRNGVRVCHRRCN-OH; disulfide 3-20, 7-16 (inferred); N-terminus and C-terminus assumed)","Emax (Top plateau minus Bottom plateau), thigh",,2.4 Δ log10 CFU/ml
same,CFU levels in thigh compared to vehicle,"6 mg/kg i.v., 5 hours, p<0.05",Significantly lower CFU levels
same,CFU levels in thigh compared to vehicle,"12 mg/kg i.v., 5 hours, p<0.01",Significantly lower CFU levels
same,CFU levels in thigh compared to vehicle,"0.16-3.0 mg/kg i.v., 5 hours",Slightly lower CFU levels
same,log10 CFU thigh mean,NZ17074 0.16 mg/kg single dose,5.16 log10 CFU/ml
same,log10 CFU thigh,"NZ17074 0.16 mg/kg single dose, 0.16 mg/kg",3.18¤ log10 CFU/ml and 6.03 log10 CFU/ml and 3.30 log10 CFU/ml and 6.15 log10 CFU/ml
same,log10 CFU thigh mean,NZ17074 0.30 mg/kg single dose,5.09 log10 CFU/ml
same,log10 CFU thigh,"NZ17074 0.30 mg/kg single dose, 0.3 mg/kg",2.00¤ log10 CFU/ml and 5.40 log10 CFU/ml and 3.10 log10 CFU/ml and 6.78 log10 CFU/ml
same,log10 CFU thigh mean,NZ17074 0.75 mg/kg single dose,6.33 log10 CFU/ml
same,log10 CFU thigh,"NZ17074 0.75 mg/kg single dose, 0.75 mg/kg",2.9¤ log10 CFU/ml and 5.72 log10 CFU/ml and 7.27 log10 CFU/ml and 6.00 log10 CFU/ml
same,log10 CFU thigh mean,NZ17074 1.5 mg/kg single dose,5.62 log10 CFU/ml
same,log10 CFU thigh,"NZ17074 1.5 mg/kg single dose, 1.5 mg/kg",2.56¤ log10 CFU/ml and 6.23 log10 CFU/ml and 4.93 log10 CFU/ml and 5.70 log10 CFU/ml
same,log10 CFU thigh mean,NZ17074 3.0 mg/kg single dose,6.07 log10 CFU/ml
same,log10 CFU thigh,"NZ17074 3.0 mg/kg single dose, 3 mg/kg",5.30 log10 CFU/ml and 6.03 log10 CFU/ml and 4.85¤ log10 CFU/ml and 6.89 log10 CFU/ml
same,log10 CFU thigh mean,"NZ17074 6.0 mg/kg single dose, p < 0.05 vs vehicle",4.10* log10 CFU/ml
same,log10 CFU thigh,"NZ17074 6.0 mg/kg single dose, 6 mg/kg",2.75 log10 CFU/ml and 4.54 log10 CFU/ml and 1.48¤ log10 CFU/ml and 5.01 log10 CFU/ml
same,log10 CFU thigh mean,"NZ17074 12 mg/kg single dose, p < 0.01 vs vehicle",3.32** log10 CFU/ml
same,log10 CFU thigh,"NZ17074 12 mg/kg single dose, 12 mg/kg",2.48¤ log10 CFU/ml and 3.27 log10 CFU/ml and 3.19 log10 CFU/ml and 3.51 log10 CFU/ml
same,BOTTOM,"Table 7, thigh",−1.3 Dlog10 CFU/ml
same,Emax,"Table 7, thigh",2.4 Dlog10 CFU/ml
same,TOP,"Table 7, thigh",1.1 Dlog10 CFU/ml
same,"ED50, thigh","neutropenic NMRI mice, single i.v. dose 0.16-12 mg/kg, 5 hours, bottom plateau not obtained, may be underestimated",5.9 mg/kg

# Reference: patent US20160158317A1, “Antimicrobial Peptide Variants and Polynucleotides Encoding Same” (Adenium Biotech A/S, priority 2010, published 2016)
